# In article PMC9076133:
# Chains of the proteins cited; added tags and fusions are not shown.
# UniProt O00487: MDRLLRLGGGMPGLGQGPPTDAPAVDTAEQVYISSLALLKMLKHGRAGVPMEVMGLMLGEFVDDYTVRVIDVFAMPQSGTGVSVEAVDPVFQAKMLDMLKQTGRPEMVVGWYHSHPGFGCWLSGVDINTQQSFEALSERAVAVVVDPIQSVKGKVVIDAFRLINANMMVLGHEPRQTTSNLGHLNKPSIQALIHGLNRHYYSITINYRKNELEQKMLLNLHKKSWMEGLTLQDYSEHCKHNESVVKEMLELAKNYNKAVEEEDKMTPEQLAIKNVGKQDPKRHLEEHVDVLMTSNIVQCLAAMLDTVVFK
# UniProt Q14997: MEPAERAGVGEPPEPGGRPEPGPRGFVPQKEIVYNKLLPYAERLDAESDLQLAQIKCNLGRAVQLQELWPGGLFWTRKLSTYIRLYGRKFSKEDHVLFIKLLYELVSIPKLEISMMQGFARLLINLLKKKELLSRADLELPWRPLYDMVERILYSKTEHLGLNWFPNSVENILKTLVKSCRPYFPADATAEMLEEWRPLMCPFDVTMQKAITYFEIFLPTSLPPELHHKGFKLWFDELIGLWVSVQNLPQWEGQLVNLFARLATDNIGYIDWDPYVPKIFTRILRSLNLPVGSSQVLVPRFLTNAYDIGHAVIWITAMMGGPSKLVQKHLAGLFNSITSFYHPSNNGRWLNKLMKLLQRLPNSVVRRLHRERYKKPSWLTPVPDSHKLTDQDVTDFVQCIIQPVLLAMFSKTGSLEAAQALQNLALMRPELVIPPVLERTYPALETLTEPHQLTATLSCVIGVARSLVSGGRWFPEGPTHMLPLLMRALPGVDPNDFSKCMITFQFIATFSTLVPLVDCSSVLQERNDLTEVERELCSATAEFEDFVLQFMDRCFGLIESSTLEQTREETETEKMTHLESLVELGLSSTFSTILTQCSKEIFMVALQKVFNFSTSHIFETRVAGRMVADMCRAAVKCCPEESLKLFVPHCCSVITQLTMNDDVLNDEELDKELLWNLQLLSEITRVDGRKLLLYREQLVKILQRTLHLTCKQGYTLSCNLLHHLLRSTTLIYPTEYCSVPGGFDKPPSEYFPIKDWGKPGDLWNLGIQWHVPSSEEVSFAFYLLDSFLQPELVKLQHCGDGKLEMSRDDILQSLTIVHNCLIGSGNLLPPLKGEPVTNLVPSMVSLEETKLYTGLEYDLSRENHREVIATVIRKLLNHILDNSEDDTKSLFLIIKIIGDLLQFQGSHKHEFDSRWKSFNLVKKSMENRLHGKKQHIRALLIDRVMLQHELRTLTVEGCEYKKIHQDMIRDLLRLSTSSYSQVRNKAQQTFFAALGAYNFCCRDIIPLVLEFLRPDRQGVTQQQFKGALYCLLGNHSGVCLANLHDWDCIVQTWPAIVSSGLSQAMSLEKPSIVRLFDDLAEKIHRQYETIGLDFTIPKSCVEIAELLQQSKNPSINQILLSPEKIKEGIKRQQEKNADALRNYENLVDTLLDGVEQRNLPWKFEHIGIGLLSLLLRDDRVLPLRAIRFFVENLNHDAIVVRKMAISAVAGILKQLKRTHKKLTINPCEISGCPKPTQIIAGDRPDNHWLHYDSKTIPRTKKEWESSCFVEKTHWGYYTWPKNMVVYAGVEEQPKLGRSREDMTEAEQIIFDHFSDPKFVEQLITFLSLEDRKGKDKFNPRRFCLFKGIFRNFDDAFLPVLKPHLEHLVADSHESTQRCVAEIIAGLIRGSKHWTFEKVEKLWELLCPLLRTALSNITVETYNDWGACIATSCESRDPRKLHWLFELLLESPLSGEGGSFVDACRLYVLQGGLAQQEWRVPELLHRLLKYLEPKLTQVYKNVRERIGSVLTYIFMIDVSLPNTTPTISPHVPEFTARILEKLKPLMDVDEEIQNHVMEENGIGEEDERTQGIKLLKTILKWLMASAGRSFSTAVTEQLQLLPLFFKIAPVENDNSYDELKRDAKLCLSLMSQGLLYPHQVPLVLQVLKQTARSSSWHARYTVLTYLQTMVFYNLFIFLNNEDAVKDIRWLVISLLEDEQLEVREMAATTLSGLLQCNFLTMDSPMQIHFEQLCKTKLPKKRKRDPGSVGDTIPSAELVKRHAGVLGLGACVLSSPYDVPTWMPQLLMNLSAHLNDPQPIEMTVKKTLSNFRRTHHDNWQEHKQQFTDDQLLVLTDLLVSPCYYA
# UniProt Q9UL46: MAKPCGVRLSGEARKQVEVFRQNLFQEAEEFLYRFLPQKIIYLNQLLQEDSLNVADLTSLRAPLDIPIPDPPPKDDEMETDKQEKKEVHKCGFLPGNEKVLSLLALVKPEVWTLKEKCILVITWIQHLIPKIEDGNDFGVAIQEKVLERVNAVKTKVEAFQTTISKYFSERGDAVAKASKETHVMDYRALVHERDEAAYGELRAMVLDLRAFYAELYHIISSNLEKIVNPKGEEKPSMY
# UniProt Q06323: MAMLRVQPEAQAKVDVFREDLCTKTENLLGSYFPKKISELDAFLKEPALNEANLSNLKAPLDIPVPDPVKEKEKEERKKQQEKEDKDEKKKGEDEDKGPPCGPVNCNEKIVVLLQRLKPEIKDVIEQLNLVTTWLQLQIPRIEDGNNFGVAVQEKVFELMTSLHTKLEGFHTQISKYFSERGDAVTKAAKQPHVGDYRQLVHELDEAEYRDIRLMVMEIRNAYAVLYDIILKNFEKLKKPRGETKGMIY
# UniProt P46379: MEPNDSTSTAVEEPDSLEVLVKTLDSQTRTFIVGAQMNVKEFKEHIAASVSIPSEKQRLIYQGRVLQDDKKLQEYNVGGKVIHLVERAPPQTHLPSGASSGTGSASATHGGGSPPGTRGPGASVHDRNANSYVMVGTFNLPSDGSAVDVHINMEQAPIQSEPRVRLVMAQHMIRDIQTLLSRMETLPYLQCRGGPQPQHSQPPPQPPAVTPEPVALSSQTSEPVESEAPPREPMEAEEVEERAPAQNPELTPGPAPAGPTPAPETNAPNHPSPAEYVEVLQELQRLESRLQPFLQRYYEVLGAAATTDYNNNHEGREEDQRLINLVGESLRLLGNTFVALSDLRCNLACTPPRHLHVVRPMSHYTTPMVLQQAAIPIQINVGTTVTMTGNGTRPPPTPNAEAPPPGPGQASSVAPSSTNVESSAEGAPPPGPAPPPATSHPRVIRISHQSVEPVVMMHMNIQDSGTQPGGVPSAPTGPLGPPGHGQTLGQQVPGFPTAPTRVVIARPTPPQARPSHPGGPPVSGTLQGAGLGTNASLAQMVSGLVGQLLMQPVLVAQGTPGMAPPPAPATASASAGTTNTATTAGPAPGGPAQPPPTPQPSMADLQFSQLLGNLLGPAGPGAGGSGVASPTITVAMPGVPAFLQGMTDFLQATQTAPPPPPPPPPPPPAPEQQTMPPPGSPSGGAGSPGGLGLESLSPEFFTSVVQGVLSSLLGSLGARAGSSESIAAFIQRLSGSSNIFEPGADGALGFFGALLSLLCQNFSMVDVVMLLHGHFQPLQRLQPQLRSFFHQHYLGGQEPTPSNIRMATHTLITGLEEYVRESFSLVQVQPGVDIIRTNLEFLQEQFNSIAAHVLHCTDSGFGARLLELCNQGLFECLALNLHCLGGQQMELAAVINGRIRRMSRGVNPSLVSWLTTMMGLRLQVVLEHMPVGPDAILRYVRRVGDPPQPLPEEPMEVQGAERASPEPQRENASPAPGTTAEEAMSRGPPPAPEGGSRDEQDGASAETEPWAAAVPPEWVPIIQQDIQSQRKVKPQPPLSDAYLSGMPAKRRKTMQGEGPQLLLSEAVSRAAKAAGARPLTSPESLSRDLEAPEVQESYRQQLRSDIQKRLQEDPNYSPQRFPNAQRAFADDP
# Results are given in words; binding and its absence hold for the method and conditions named. Binding seen in cells or lysates may run through a third protein. Here binding means that the protein was enriched with, or labelled near, the bait; the list need not be complete.
# Biological target: HBTH-tagged PSMD14 (Rpn11-HTBH) (UniProt O00487)
# Test: affinity purification with mass spectrometry; proteasomes with HTBH-tagged Rpn11 captured from lysate of HEK293 Rpn11-HTBH cells (treated with 1 µM b-AP15 or 0.1% DMSO) on streptavidin magnetic beads overnight at 4°C in 50 mM HEPES, 5 mM MgCl2, 10% glycerol, 2 mM ATP, 50 mM NaCl; released with AcTEV protease; LC-MS/MS with label-free quantification
row,binding,Substance
1,binds,PA200 (from UniProt Q14997 1-1843)
2,binds,PSME2 (from UniProt Q9UL46 1-239)
3,binds,PSME1 (from UniProt Q06323 1-249)
4,binds,BAG6 (BCL2 Associated Athanogene 6) (from UniProt P46379 1-1132)
